In patent US20020182656A1 one finds binding data, which are given here for two molecules.

The target of experiment [1] is Autophosphorylated human recombinant GNK (human) (UniProt Q8TD19). In words: self-association; Superdex 200 size exclusion chromatography.
For experiment [2] the target is unchanged. Put plainly: self-association; SDS-PAGE time course after autophosphorylation.
The target of experiment [3] is Human recombinant GNK (hu-rGNK) (human) (UniProt Q8TD19). Put plainly: self-association; Superdex 200 size exclusion chromatography.

Results are given in words; binding and its absence hold for the method and conditions named. Some entries that bind do so weakly or less than the wild type.

B1: Autophosphorylated human recombinant GNK (enzyme)
chain: MSVLGEYERHCDSINSDFGSESGGCGDSSPGPSASQGPRAGGGAAEQEELHYIPIRVLGRGAFGEATLYRRTEDDSLVVWKEVDLTRLSEKERRDALNEIVILALLQHDNIIAYYNHFMDNTTLLIELEYCNGGNLYDKILRQKDKLFEEEMVVWYLFQIVSAVSCIHKAGILHRDIKTLNIFLTKANLIKLGDYGLAKKLNSEYSMAETLVGTPYYMSPELCQGVKYNFKSDIWAVGCVIFELLTLKRTFDATNPLNLCVKIVQGIRAMEVDSSQYSLELIQMVHSCLDQDPEQRPTADELLDRPLLRKRRREMEEKVTLLNAPTKRPRSSTVTEAPIAVVTSRTSEVYVWGGGKSTPQKLDVIKSGCSARQVCAGNTHFAVVTVEKELYTWVNMQGGTKLHGQLGHGDKASYRQPKHVEKLQGKAIHQVSCGDDFTVCVTDEGQLYAFGSDYYGCMGVDKVAGPEVLEPMQLNFFLSNPVEQVSCGDNHVVVLTRNKEVYSWGCGEYGRLGLDSEEDYYTPQKVDVPKALIIVAVQCGCDGTFLLTQSGKVLACGLNEFNKLGLNQCMSGIINHEAYHEVPYTTSFTLAKQLSFYKIRTIAPGKTHTAAIDERGRLLTFGCNKCGQLGVGNYKKRLGINLLGGPLGGKQVIRVSCGDEFTIAATDDNHIFAWGNGGNGRLAMTPTERPHGSDICTSWPRPIFGSLHHVPDLSCRGWHTILIVEKVLNSKTIRSNSSGLSIGTVFQSSSPGGGGGGGGGEEEDSQQESETPDPSGGFRGTMEADRGMEGLISPTEAMGNSNGASSSCPGWLRKELENAEFIPMPDSPSPLSAAFSESEKDTLPYEELQGLKVASEAPLEHKPQVEASSPRLNPAVTCAGKGTPLTPPACACSSLQVEVERLQGLVLKCLAEQQKLQQENLQIFTQLQKLNKKLEGGQQVGMHSKGTQTAKEEMEMDPKPDLDSDSWCLLGTDSCRPSL
modifications: autophosphorylated (sites not given)
Turning to B1, the binding result in experiment [1] and in experiment [2] was “binds” in each case.

B2: Human recombinant GNK (hu-rGNK) (enzyme)
chain: MSVLGEYERHCDSINSDFGSESGGCGDSSPGPSASQGPRAGGGAAEQEELHYIPIRVLGRGAFGEATLYRRTEDDSLVVWKEVDLTRLSEKERRDALNEIVILALLQHDNIIAYYNHFMDNTTLLIELEYCNGGNLYDKILRQKDKLFEEEMVVWYLFQIVSAVSCIHKAGILHRDIKTLNIFLTKANLIKLGDYGLAKKLNSEYSMAETLVGTPYYMSPELCQGVKYNFKSDIWAVGCVIFELLTLKRTFDATNPLNLCVKIVQGIRAMEVDSSQYSLELIQMVHSCLDQDPEQRPTADELLDRPLLRKRRREMEEKVTLLNAPTKRPRSSTVTEAPIAVVTSRTSEVYVWGGGKSTPQKLDVIKSGCSARQVCAGNTHFAVVTVEKELYTWVNMQGGTKLHGQLGHGDKASYRQPKHVEKLQGKAIHQVSCGDDFTVCVTDEGQLYAFGSDYYGCMGVDKVAGPEVLEPMQLNFFLSNPVEQVSCGDNHVVVLTRNKEVYSWGCGEYGRLGLDSEEDYYTPQKVDVPKALIIVAVQCGCDGTFLLTQSGKVLACGLNEFNKLGLNQCMSGIINHEAYHEVPYTTSFTLAKQLSFYKIRTIAPGKTHTAAIDERGRLLTFGCNKCGQLGVGNYKKRLGINLLGGPLGGKQVIRVSCGDEFTIAATDDNHIFAWGNGGNGRLAMTPTERPHGSDICTSWPRPIFGSLHHVPDLSCRGWHTILIVEKVLNSKTIRSNSSGLSIGTVFQSSSPGGGGGGGGGEEEDSQQESETPDPSGGFRGTMEADRGMEGLISPTEAMGNSNGASSSCPGWLRKELENAEFIPMPDSPSPLSAAFSESEKDTLPYEELQGLKVASEAPLEHKPQVEASSPRLNPAVTCAGKGTPLTPPACACSSLQVEVERLQGLVLKCLAEQQKLQQENLQIFTQLQKLNKKLEGGQQVGMHSKGTQTAKEEMEMDPKPDLDSDSWCLLGTDSCRPSL
In the case of B2, the binding result in experiment [3] is on record as “binds”.
